PubChem BioAssay AID493246, Drosophila RNAi Screening Center | 2011
Purpose: 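Identify essential fly genes by loss of cell viability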 (primary screen). Cells: Drosophila Kc and S2R+ cells. Reagent: long dsRNA against Drosophila genes. Measurement: 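Cell number per well after knock-down, printed as raw plate values; calls were based on per-plate z-scores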. Scale: Kc cell number and S2R+ cell number: higher = more cells remaining. Call rule: 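Counted as a hit if cell number falls by a z-score of at least 3 within its plate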.
The deposit covers about 21,000 reagents; below is an unselected part of those that have a named target and a result. In the full data, 429 (2%) got an active call. 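Values are raw and not normalised between plates; calls rest on per-plate z-scores that were not deposited.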 Entries without a mark were called inactive. Not stated in the record: the amount of reagent, the time to read-out.

Kc cell number, rep 1 | Kc cell number, rep 2 | S2R+ cell number, rep 1 | S2R+ cell number, rep 2 | predicted target
1.53e6 | 1.56e6 | 1.26e6 | 3.14e5 | CG3651 (GeneID 35440)
1.38e6 | 1.53e6 | 1.23e6 | 1.33e6 | ouib (GeneID 41039)
1.08e6 | 1.36e6 | 1.06e6 | 1.08e6 | CG32651 (GeneID 318140)
1.66e6 | 1.77e6 | 1.24e6 | 1.35e6 | CG11608 (GeneID 41556)
1.46e6 | 1.48e6 | 1.05e6 | 1.15e6 | CG4025 (GeneID 31177)
1.55e6 | 1.63e6 | 1.25e6 | 1.33e6 | glo (GeneID 41431)
1.51e6 | 1.45e6 | 1.14e6 | 1.21e6 | GstO3 (GeneID 38972)
1.45e6 | 1.50e6 | 1.36e6 | 1.37e6 | ms(3)76Ba (GeneID 40109)
1.18e6 | 1.43e6 | 1.04e6 | 1.13e6 | l(3)neo43 (GeneID 41851)
1.55e6 | 1.65e6 | 1.23e6 | 1.32e6 | stck (GeneID 40999)
1.28e6 | 1.45e6 | 1.23e6 | 1.37e6 | Gr68a (GeneID 39324)
1.30e6 | 1.39e6 | 9.26e5 | 9.76e5 | Mfap1 (GeneID 38256)
5.47e5 | – | 8.51e5 | – | Gfat2 (GeneID 43373)
1.42e6 | 1.50e6 | 1.19e6 | 1.27e6 | CG7275 (GeneID 39669)
1.34e6 | 1.42e6 | 9.26e5 | 1.05e6 | CycB (GeneID 37618)
1.45e6 | 1.48e6 | 1.28e6 | 1.32e6 | CG5274 (GeneID 40257)
1.46e6 | 1.45e6 | 1.00e6 | 1.09e6 | betaNACtes4 (GeneID 32389)
1.65e6 | 1.81e6 | 1.29e6 | 1.32e6 | CG15580 (GeneID 40743)
6.66e5 | – | 9.49e5 | – | dpr14 (GeneID 31702)
1.46e6 | 1.48e6 | 1.24e6 | 1.35e6 | lds (GeneID 45894)
1.51e6 | 1.60e6 | 1.03e6 | 1.15e6 | DENR (GeneID 32679)
1.48e6 | 1.59e6 | 1.18e6 | 2.85e5 | Catsup (GeneID 48805)
1.59e6 | 1.62e6 | 1.32e6 | 1.43e6 | Cyp9h1 (GeneID 36412)
1.47e6 | 1.53e6 | 1.04e6 | 1.22e6 | TBC1D23 (GeneID 33289)

4 entries from above, set out differently.
dpr14 (GeneID 31702) | Kc cell number, rep 1 = 6.66e5; S2R+ cell number, rep 1 = 9.49e5
lds (GeneID 45894) | Kc cell number, rep 1 = 1.46e6; Kc cell number, rep 2 = 1.48e6; S2R+ cell number, rep 1 = 1.24e6; S2R+ cell number, rep 2 = 1.35e6
DENR (GeneID 32679) | Kc cell number, rep 1 = 1.51e6; Kc cell number, rep 2 = 1.60e6; S2R+ cell number, rep 1 = 1.03e6; S2R+ cell number, rep 2 = 1.15e6
Catsup (GeneID 48805) | Kc cell number, rep 1 = 1.48e6; Kc cell number, rep 2 = 1.59e6; S2R+ cell number, rep 1 = 1.18e6; S2R+ cell number, rep 2 = 2.85e5
